Measured values as given in article doi:10.1101/2022.09.16.506679.
Results are given in words; binding and its absence hold for the method and conditions named. Sequences can lack the tags named with a protein.

Biological target: EL222 wild type (light-oxygen-voltage transcription factor from Erythrobacter litoralis) (Erythrobacter litoralis) (UniProt Q2NB98)
Assay: SEC

B1: EL222 wild type (light-oxygen-voltage transcription factor from Erythrobacter litoralis) (protein, UniProt Q2NB98 17-225)
chain: GADDTRVEVQPPAQWVLDLIEASPIASVVSDPRLADNPLIAINQAFTDLTGYSEEECVGRNCRFLAGSGTEPWLTDKIRQGVREHKPVLVEILNYKKDGTPFRNAVLVAPIYDDDDELLYFLGSQVEVDDDQPNMGMARRERAAEMLKTLSPRQLEVTTLVASGLRNKEVAARLGLSEKTVKMHRGLVMEKLNLKTSADLVRIAVEAGI
- binding: no binding
